From patent publication US7659053B2, “Methods of alteration of surface affinities using non-chemical force-creating fields” (President and Fellows of Harvard College, priority 2003, dated 2010)
At least one structure is not confirmed: it was looked up by name or label, or the drawing left a doubt.

Test system: BCE cells
Test: Cell motility screening assay: migration of patterned BCE cells out of patterns after voltage pulse
Type: cell-based, Bovine
Details: drug added before voltage pulse (−1.2 V, 30 s), fumagillin 100 mM, cycloheximide 1 mg/mL, nocodozole 1 mg/mL
Procedure: Time-lapse images were acquired on a Leica inverted microscope equipped with a commercially available on-stage incubation chamber that maintained the temperature at 37° C. and the CO2 concentration at 10% at all times. To prevent the evaporation of water, the culture dish was covered with a thin layer of mineral oil (Sigma-Aldrich, St. Louis, Mo.). Phase-contrast images were acquired by a Hamamatsu video camera using METAMORPH® software (Universal Imaging Inc., Downingtown, Pa.). Fluorescent images were acquired through a charge-coupled device from Hamamatsu (ORCA-ER). Quantification of cell shapes for the analysis of the fractional coverage of the surface was performed with an image analysis routine in Metamorph. Briefly, the cells were outlined and the total areas that the cells occupied were calculated. The calculated area was then divided by the total area of the field of view in the micrograph to obtain the normalized fractional coverage by cells. The LIVE/DEAD® assay kit was obtained from Molecular Probes (Eugene, Oreg.).
BCE cells were patterned on a gold-coated substrate coated with C18 and C11EG3 thiols in discrete patterned regions, similar to those shown in FIG. 1 by techniques similar to those described above in Example 1. Additionally, serum-containing media was used in some instances. […]

Q: How did the “effect on cell migration out of the patterns” value turn out when `COC(=O)Nc1nc2ccc(C(=O)c3cccs3)cc2n1C` [nocodozole] was run?
A: The value was “abolished it completely”.
